The whole screen tested about 580,000 compounds, of which about 6,100 (1.1%) were called active. The shares of active, inactive and inconclusive entries below differ from those in the screen. Calls come from the whole dose curve; as a rule, active = well fitted inhibition curve with a large enough effect; inconclusive = small, poorly fitted or top-dose-only effect, or another doubt; inactive = no such curve, though single readings can be large or run the other way. Potencies beside an inconclusive call are fits to weak or partial responses and may not hold up.
Each compound was assayed against Polyunsaturated fatty acid lipoxygenase ALOX12 (Homo sapiens) (UniProt P18054) (assay: Primary qHTS assay for inhibitors of human arachidonate 12S-lipoxygenase (ALOX12): Round 2). Settings: purified 12hLO, xylenol orange hydroperoxide absorbance; series mostly up to 108 µM.
In short: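 Purified human 12hLO (150 nM final) in 25 mM Hepes, 0.01% Triton X-100, pH 7.0 was preincubated 15 min at room temperature with compound. Then 40 uM arachidonic acid was added, 30 min. Hydroperoxide was read by Fe-XO absorbance ratio 573/405 nm.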
Potency is the fitted concentration of half-maximal effect.

Sequences of proteins named here, by UniProt entry; tags and fusion partners are left off. A change or cut given only in a name is not applied to a line headed by its entry.
UniProt P18054: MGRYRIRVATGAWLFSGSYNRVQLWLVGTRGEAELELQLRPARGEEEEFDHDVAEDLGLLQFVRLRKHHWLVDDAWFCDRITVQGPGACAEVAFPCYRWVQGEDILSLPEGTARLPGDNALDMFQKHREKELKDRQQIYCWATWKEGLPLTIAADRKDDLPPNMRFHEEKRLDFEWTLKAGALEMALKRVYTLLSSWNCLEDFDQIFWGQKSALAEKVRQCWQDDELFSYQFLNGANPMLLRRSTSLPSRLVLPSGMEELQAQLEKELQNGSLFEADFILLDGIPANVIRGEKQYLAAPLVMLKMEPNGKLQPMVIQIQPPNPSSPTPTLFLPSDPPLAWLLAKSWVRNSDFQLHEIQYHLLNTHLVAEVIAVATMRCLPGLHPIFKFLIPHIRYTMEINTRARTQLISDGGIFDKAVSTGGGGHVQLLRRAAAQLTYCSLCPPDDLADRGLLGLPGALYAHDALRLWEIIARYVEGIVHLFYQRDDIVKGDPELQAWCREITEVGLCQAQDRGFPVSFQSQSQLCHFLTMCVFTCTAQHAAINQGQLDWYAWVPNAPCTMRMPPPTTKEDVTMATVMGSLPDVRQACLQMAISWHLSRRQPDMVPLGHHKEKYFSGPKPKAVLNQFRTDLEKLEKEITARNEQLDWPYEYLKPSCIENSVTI

| SMILES | Potency |
| --- | --- |
| CC(C)COc1ccccc1C(=O)NC(CO)C(=O)O (stereo not given) | inconclusive: 112 µM [inhibitor, partial curve, poor fit] |
| CN(C)c1ccc(-c2ccc3ncnc(N(C)C)c3c2)cc1 | inactive |
| COc1ccc(NC(=O)CCCCn2c(=O)[nH]c3ccccc3c2=O)cc1 | inactive |
| COC(=O)CCC(=O)Nc1cccc2c(NC(=O)CCC(=O)OC)cccc12 | inconclusive: 35.5 µM [inhibitor, single point] |
| O=[N+]([O-])c1cc(C(F)(F)F)ccc1N1CCN(CCO)CC1 | inactive |
| NC(=O)NC1(C(=O)O)CCCC1 | inconclusive: 126 µM [inhibitor, single point] |
| CC(=O)c1ccc(NC(=O)COc2ccccc2-c2nc(-c3cccc(C)c3)no2)cc1 | inactive |
| Cc1ccccc1CC(C)Nc1ccc(C#N)cn1 (stereo not given) | inconclusive: 50.1 µM [inhibitor, partial curve, poor fit] |
| Brc1c(NC2=NCCN2)ccc2nccnc12 | inconclusive: 100 µM [inhibitor, single point] |
| CCN(CC)CCCN=C1N[C@@H](c2ccccc2)C(C(=O)OC)=C(C)N1CC | inconclusive: 44.7 µM [inhibitor, partial curve, poor fit] |
| COc1ccc(-n2c(C(C)n3nc(C)c([N+](=O)[O-])c3C)n[nH]c2=S)cc1 (stereo not given) | inconclusive: 50.1 µM [inhibitor, partial curve, poor fit] |
| CC(=O)c1cccc(NC(=S)NCc2ccccc2)c1 | inconclusive: 79.4 µM [inhibitor, partial curve, poor fit] |
| Cc1n[nH]c(=O)c2c(NC(=O)CSc3ccc(F)cc3)oc(C)c12 | inconclusive: 35.5 µM [inhibitor, partial curve, poor fit] |
| CC(=O)c1ccc(OCc2cc(C(=O)N3CCCCCCC3)no2)cc1 | inactive |
| Cc1c(F)cccc1NC(=O)C1CN(S(=O)(=O)C2CC2)CC12CCCCC2 (stereo not given) | inconclusive: 56.2 µM [inhibitor, partial curve, poor fit] |
| Cc1ccc(CN2CCC3(Cc4ccccc4CNC3=O)C2)cc1 (stereo not given) | active: 28.2 µM |
| CN(Cc1ccccc1)C(=O)COC(=O)Cc1ccc(Cl)cc1 | inconclusive: 141 µM [inhibitor, single point] |
| CCOC(=O)c1scc(-c2ccccc2)c1S(=O)(=O)Nc1cc(Cl)c(OC)cc1OC | inconclusive: 39.8 µM [inhibitor, partial curve, poor fit] |
| Nc1ccc(C2=CSC3=NCCCN23)cc1 | inactive |
| Cn1c(-c2ccc3c(c2)OCO3)cnc1NCc1ccccc1Cl | inconclusive: 35.5 µM [inhibitor, partial curve, poor fit] |
| Cc1ccc(NC(=S)NNC(=O)CSc2nc3ccccc3c(=O)n2-c2ccc(C)cc2)cc1 | inconclusive: 39.8 µM [inhibitor, partial curve, poor fit] |
| COc1ccc(Nc2cc(C)nc(Nc3ccc(NC(=O)C4CCCCC4)cc3)n2)cc1 | inconclusive: 50.1 µM [inhibitor, partial curve, poor fit] |
| COc1ccc(/C=C2\Oc3cc(OS(=O)(=O)c4ccc(OC)cc4)ccc3C2=O)cc1 | inactive |

| SMILES | Potency |
| --- | --- |
| COc1ccc(C(CC(=O)O)NS(=O)(=O)c2ccc3c(c2)N(C(C)=O)CC(C)O3)cc1 (stereo not given) | inactive |
| Cc1c(NC(=O)CN2CC(C)OC(C)C2)c(=O)n(-c2ccccc2)n1C (stereo not given) | inconclusive: 0.708 µM [inhibitor, full curve, poor fit] |
| COC(=O)c1ccc(CSc2nc3c([nH]c4ccccc43)c(=O)n2-c2ccc(OC)cc2)o1 | inactive |
| NS(=O)(=O)c1ccc(NC(=S)NC(=O)c2cccnc2)cc1 | inconclusive: 44.7 µM [inhibitor, partial curve, poor fit] |
| COc1ccc(Br)cc1C(=O)NC(=S)Nc1ccc(Cl)c(C(=O)O)c1 | inconclusive: 44.7 µM [inhibitor, partial curve, poor fit] |
| CCc1ccc(CCC(=O)Nc2cccnc2)cc1 | inactive |
| COc1ccccc1-n1cnc2cc(NCc3cccs3)ccc21 | inactive |
| CC(C)CNC(=O)NC(=O)C(C)Sc1nc(-c2ccco2)nc2ccccc12 (stereo not given) | inconclusive: 0.562 µM [inhibitor, full curve, poor fit] |
| CCCCCCCCNC(=S)NCCN1CCCCC1 | inconclusive: 25.1 µM [inhibitor, partial curve, poor fit] |
| NC(=S)NC1CCS(=O)(=O)C1 (stereo not given) | inactive |
| O=C(O)c1ccc(Nc2nc(-c3ccc4ccccc4c3)cs2)cc1O | active: 31.6 µM |
| CCOc1ccc(/C=C/C(=O)c2c(O)c3ccccc3oc2=O)cc1 | inactive |
| Cc1cc(C(=O)NCc2ccc(F)cc2)c2c(C3CCNCC3)noc2n1 | inconclusive: 11.2 µM [inhibitor, full curve] |
| O=c1[nH]c(Nc2ccccc2Cl)cc2ccccc12 | inconclusive: 44.7 µM [inhibitor, partial curve, poor fit] |
| Cc1ccc(-c2nc3ccc(C)cc3c(C(=O)O)c2C)cc1 | inconclusive: 20 µM [inhibitor, partial curve, poor fit] |
| COc1ccc(C)cc1NC(=O)CN1CCN(S(=O)(=O)c2ccc(F)cc2)CC1 | inactive |
| N/C(=N\NC(=O)c1cccs1)c1cc2cc(Cl)ccc2oc1=O | inconclusive: 112 µM [inhibitor, single point] |
| CCOC(=O)CN1CC23C=CC(O2)C(C(=O)NC2CCCC2)C3C1=O (stereo not given) | inactive |
| Fc1ccc(CSC2=NCCN2)c(Br)c1 | inconclusive: 79.4 µM [inhibitor, partial curve, poor fit] |
| O=C(O)Cn1cc(C(C(=O)O)N2CCN(Cc3cccnc3)CC2)c2ccc(F)cc21 (stereo not given) | inconclusive: 7.08 µM [inhibitor, partial curve, poor fit] |
| O=C(c1cc(-c2ccncc2)nc2ccc(Cl)cc12)N1CCN(Cc2ccc3c(c2)OCO3)CC1 | inconclusive: 126 µM [inhibitor, single point] |
| C=CCc1c(C)nc(Nc2nc(C)c3ccccc3n2)[nH]c1=O | inconclusive: 44.7 µM [inhibitor, partial curve, poor fit] |

Some of the entries so far, with tabs.
SMILES	Potency
NS(=O)(=O)c1ccc(NC(=S)NC(=O)c2cccnc2)cc1	inconclusive: 44.7 µM [inhibitor, partial curve, poor fit]
COc1ccc(Br)cc1C(=O)NC(=S)Nc1ccc(Cl)c(C(=O)O)c1	inconclusive: 44.7 µM [inhibitor, partial curve, poor fit]
CCCCCCCCNC(=S)NCCN1CCCCC1	inconclusive: 25.1 µM [inhibitor, partial curve, poor fit]
NC(=S)NC1CCS(=O)(=O)C1 (stereo not given)	inactive
O=c1[nH]c(Nc2ccccc2Cl)cc2ccccc12	inconclusive: 44.7 µM [inhibitor, partial curve, poor fit]
Cc1ccc(-c2nc3ccc(C)cc3c(C(=O)O)c2C)cc1	inconclusive: 20 µM [inhibitor, partial curve, poor fit]
COc1ccc(C)cc1NC(=O)CN1CCN(S(=O)(=O)c2ccc(F)cc2)CC1	inactive
CCOC(=O)CN1CC23C=CC(O2)C(C(=O)NC2CCCC2)C3C1=O (stereo not given)	inactive
Fc1ccc(CSC2=NCCN2)c(Br)c1	inconclusive: 79.4 µM [inhibitor, partial curve, poor fit]
O=C(O)Cn1cc(C(C(=O)O)N2CCN(Cc3cccnc3)CC2)c2ccc(F)cc21 (stereo not given)	inconclusive: 7.08 µM [inhibitor, partial curve, poor fit]
O=C(c1cc(-c2ccncc2)nc2ccc(Cl)cc12)N1CCN(Cc2ccc3c(c2)OCO3)CC1	inconclusive: 126 µM [inhibitor, single point]
C=CCc1c(C)nc(Nc2nc(C)c3ccccc3n2)[nH]c1=O	inconclusive: 44.7 µM [inhibitor, partial curve, poor fit]

— PubChem BioAssay AID1671190 (National Center for Advancing Translational Sciences (NCATS), 2021)
